Assay results published in patent publication US10139406B2, “Alkyl quinolones as biomarkers of pseudomonas aeruginosa infection and uses thereof” (priority 2013, dated 2018).

Assay: LLOQ determination by serial dilutions of AQ mix spiked into blank urine/plasma (LC-MS/MS)
Set-up: species or system human
Conditions: for Calculated LLOQ in plasma: spiked blank plasma; for Calculated LLOQ in urine: spiked blank urine

| SMILES | Calculated LLOQ in plasma | Calculated LLOQ in urine |
| --- | --- | --- |
| CCCCCCCCCc1[nH]c2ccccc2c(=O)c1O [C9-PQS, 2-nonyl-3-hydroxy-4(1H)-quinolone] | 100 pmol/L | 50 pmol/L |
| CCCCCCCc1cc(=O)c2ccccc2[nH]1 [HHQ, 2-heptyl-4(1H)-quinolone] | 10 pmol/L | 20 pmol/L |
